From publication doi:10.1101/232272
No constants are given. Whether binding was seen depends on the method and setting. Binding seen in cells or lysates may run through a third protein. Some entries that bind do so weakly or less than the wild type. Sequences can lack the tags named with a protein.

T1: GST-tagged Gorab (Drosophila) (UniProt Q8IQQ4)
T1 sequence: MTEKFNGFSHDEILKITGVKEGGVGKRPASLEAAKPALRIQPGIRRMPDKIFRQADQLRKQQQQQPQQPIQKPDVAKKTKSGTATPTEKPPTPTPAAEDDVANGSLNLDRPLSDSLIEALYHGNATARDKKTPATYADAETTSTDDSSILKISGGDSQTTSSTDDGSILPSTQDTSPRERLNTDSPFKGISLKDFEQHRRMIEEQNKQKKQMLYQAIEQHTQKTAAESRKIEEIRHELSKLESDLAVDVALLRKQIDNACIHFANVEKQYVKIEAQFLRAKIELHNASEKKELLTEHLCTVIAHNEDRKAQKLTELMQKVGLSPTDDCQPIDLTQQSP

T2: GST-tagged Sas6 (Drosophila) (UniProt Q9VAC8)
T2 sequence: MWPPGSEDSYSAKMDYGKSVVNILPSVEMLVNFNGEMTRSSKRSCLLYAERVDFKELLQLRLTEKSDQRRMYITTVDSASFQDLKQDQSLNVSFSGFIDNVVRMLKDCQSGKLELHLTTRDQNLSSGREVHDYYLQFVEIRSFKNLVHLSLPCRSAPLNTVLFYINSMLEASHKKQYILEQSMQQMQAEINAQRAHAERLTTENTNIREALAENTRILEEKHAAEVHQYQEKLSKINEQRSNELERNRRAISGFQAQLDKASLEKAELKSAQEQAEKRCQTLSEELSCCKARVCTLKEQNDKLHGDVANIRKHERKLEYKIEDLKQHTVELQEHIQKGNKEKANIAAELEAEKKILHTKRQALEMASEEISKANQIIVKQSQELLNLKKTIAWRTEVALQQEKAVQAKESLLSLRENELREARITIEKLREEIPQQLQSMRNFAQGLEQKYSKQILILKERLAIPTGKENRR

T3: Gorab^ΔSID tagged with GFP (transient transfection) (Drosophila) (UniProt Q8IQQ4)
T3 sequence: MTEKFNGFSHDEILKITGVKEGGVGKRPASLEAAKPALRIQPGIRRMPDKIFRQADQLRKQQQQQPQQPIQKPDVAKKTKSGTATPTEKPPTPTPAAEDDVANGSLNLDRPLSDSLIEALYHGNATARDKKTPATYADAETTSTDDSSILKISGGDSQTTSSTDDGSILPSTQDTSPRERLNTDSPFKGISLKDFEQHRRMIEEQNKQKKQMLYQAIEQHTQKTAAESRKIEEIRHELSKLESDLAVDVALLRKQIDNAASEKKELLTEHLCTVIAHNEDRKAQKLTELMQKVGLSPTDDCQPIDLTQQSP

T4: full length Gorab tagged with GFP (transient transfection) (Drosophila) (UniProt Q8IQQ4)
T4 sequence: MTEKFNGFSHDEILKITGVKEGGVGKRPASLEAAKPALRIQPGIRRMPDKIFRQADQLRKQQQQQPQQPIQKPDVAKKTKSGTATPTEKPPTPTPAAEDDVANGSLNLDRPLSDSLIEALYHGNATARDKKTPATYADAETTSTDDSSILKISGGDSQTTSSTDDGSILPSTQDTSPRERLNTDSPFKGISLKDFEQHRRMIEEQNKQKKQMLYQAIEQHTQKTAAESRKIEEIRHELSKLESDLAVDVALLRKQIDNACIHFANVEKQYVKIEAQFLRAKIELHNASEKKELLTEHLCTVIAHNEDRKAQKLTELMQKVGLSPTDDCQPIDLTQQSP


Key:
[1] = target: T1, GST-tagged Gorab (Drosophila); assay: pull-down
[2] = target: T2, GST-tagged Sas6 (Drosophila); assay: pull-down
[3] = target: T3, Gorab^ΔSID tagged with GFP (transient transfection) (Drosophila); assay: co-IP
[4] = target: T4, full length Gorab tagged with GFP (transient transfection) (Drosophila); assay: co-IP

Row | Binder | binding [2] | also measured
1 | 35S-Met-labelled full-length Sas6 (protein, UniProt Q9VAC8 1-472, 35S-methionine label) MWPPGSEDSYSAKMDYGKSVVNILPSVEMLVNFNGEMTRSSKRSCLLYAERVDFKELLQLRLTEKSDQRRMYITTVDSASFQDLKQDQSLNVSFSGFIDNVVRMLKDCQSGKLELHLTTRDQNLSSGREVHDYYLQFVEIRSFKNLVHLSLPCRSAPLNTVLFYINSMLEASHKKQYILEQSMQQMQAEINAQRAHAERLTTENTNIREALAENTRILEEKHAAEVHQYQEKLSKINEQRSNELERNRRAISGFQAQLDKASLEKAELKSAQEQAEKRCQTLSEELSCCKARVCTLKEQNDKLHGDVANIRKHERKLEYKIEDLKQHTVELQEHIQKGNKEKANIAAELEAEKKILHTKRQALEMASEEISKANQIIVKQSQELLNLKKTIAWRTEVALQQEKAVQAKESLLSLRENELREARITIEKLREEIPQQLQSMRNFAQGLEQKYSKQILILKERLAIPTGKENRR |  | binding [1]: binds
2 | 35S-labelled Sas6 fragment 351-462 (Gorab Interacting Region) (domain or fragment, UniProt Q9VAC8 351-462, 35S label) AEKKILHTKRQALEMASEEISKANQIIVKQSQELLNLKKTIAWRTEVALQQEKAVQAKESLLSLRENELREARITIEKLREEIPQQLQSMRNFAQGLEQKYSKQILILKERL |  | binding [1]: binds
3 | 35S-Met-labeled full length Gorab (protein, UniProt Q8IQQ4 1-338, 35S-methionine label) MTEKFNGFSHDEILKITGVKEGGVGKRPASLEAAKPALRIQPGIRRMPDKIFRQADQLRKQQQQQPQQPIQKPDVAKKTKSGTATPTEKPPTPTPAAEDDVANGSLNLDRPLSDSLIEALYHGNATARDKKTPATYADAETTSTDDSSILKISGGDSQTTSSTDDGSILPSTQDTSPRERLNTDSPFKGISLKDFEQHRRMIEEQNKQKKQMLYQAIEQHTQKTAAESRKIEEIRHELSKLESDLAVDVALLRKQIDNACIHFANVEKQYVKIEAQFLRAKIELHNASEKKELLTEHLCTVIAHNEDRKAQKLTELMQKVGLSPTDDCQPIDLTQQSP | binds | 
4 | 35S-Met-labeled Gorab fragment 191-318 (minimal Sas6 interacting region) (domain or fragment, UniProt Q8IQQ4 191-318, 35S-methionine label) SLKDFEQHRRMIEEQNKQKKQMLYQAIEQHTQKTAAESRKIEEIRHELSKLESDLAVDVALLRKQIDNACIHFANVEKQYVKIEAQFLRAKIELHNASEKKELLTEHLCTVIAHNEDRKAQKLTELMQ | binds | 
5 | 35S-Met-labeled Gorab deletion aa260-266 (protein, UniProt Q8IQQ4, 35S-methionine label) MTEKFNGFSHDEILKITGVKEGGVGKRPASLEAAKPALRIQPGIRRMPDKIFRQADQLRKQQQQQPQQPIQKPDVAKKTKSGTATPTEKPPTPTPAAEDDVANGSLNLDRPLSDSLIEALYHGNATARDKKTPATYADAETTSTDDSSILKISGGDSQTTSSTDDGSILPSTQDTSPRERLNTDSPFKGISLKDFEQHRRMIEEQNKQKKQMLYQAIEQHTQKTAAESRKIEEIRHELSKLESDLAVDVALLRKQIDNAEKQYVKIEAQFLRAKIELHNASEKKELLTEHLCTVIAHNEDRKAQKLTELMQKVGLSPTDDCQPIDLTQQSP | binds | 
6 | 35S-Met-labeled Gorab deletion aa267-281 (protein, UniProt Q8IQQ4, 35S-methionine label) MTEKFNGFSHDEILKITGVKEGGVGKRPASLEAAKPALRIQPGIRRMPDKIFRQADQLRKQQQQQPQQPIQKPDVAKKTKSGTATPTEKPPTPTPAAEDDVANGSLNLDRPLSDSLIEALYHGNATARDKKTPATYADAETTSTDDSSILKISGGDSQTTSSTDDGSILPSTQDTSPRERLNTDSPFKGISLKDFEQHRRMIEEQNKQKKQMLYQAIEQHTQKTAAESRKIEEIRHELSKLESDLAVDVALLRKQIDNACIHFANVIELHNASEKKELLTEHLCTVIAHNEDRKAQKLTELMQKVGLSPTDDCQPIDLTQQSP | binds | 
7 | 35S-Met-labeled Gorab deletion aa282-286 (protein, UniProt Q8IQQ4, 35S-methionine label) MTEKFNGFSHDEILKITGVKEGGVGKRPASLEAAKPALRIQPGIRRMPDKIFRQADQLRKQQQQQPQQPIQKPDVAKKTKSGTATPTEKPPTPTPAAEDDVANGSLNLDRPLSDSLIEALYHGNATARDKKTPATYADAETTSTDDSSILKISGGDSQTTSSTDDGSILPSTQDTSPRERLNTDSPFKGISLKDFEQHRRMIEEQNKQKKQMLYQAIEQHTQKTAAESRKIEEIRHELSKLESDLAVDVALLRKQIDNACIHFANVEKQYVKIEAQFLRAKASEKKELLTEHLCTVIAHNEDRKAQKLTELMQKVGLSPTDDCQPIDLTQQSP | binds | 
8 | myc-tagged Sas6 (protein, UniProt Q9VAC8 1-472) MWPPGSEDSYSAKMDYGKSVVNILPSVEMLVNFNGEMTRSSKRSCLLYAERVDFKELLQLRLTEKSDQRRMYITTVDSASFQDLKQDQSLNVSFSGFIDNVVRMLKDCQSGKLELHLTTRDQNLSSGREVHDYYLQFVEIRSFKNLVHLSLPCRSAPLNTVLFYINSMLEASHKKQYILEQSMQQMQAEINAQRAHAERLTTENTNIREALAENTRILEEKHAAEVHQYQEKLSKINEQRSNELERNRRAISGFQAQLDKASLEKAELKSAQEQAEKRCQTLSEELSCCKARVCTLKEQNDKLHGDVANIRKHERKLEYKIEDLKQHTVELQEHIQKGNKEKANIAAELEAEKKILHTKRQALEMASEEISKANQIIVKQSQELLNLKKTIAWRTEVALQQEKAVQAKESLLSLRENELREARITIEKLREEIPQQLQSMRNFAQGLEQKYSKQILILKERLAIPTGKENRR |  | binding [3]: no binding; binding [4]: binds
9 | 35S-Met-labeled Gorab 27aa deletion aa260-286 (ΔSID) (protein, UniProt Q8IQQ4, 35S-methionine label) MTEKFNGFSHDEILKITGVKEGGVGKRPASLEAAKPALRIQPGIRRMPDKIFRQADQLRKQQQQQPQQPIQKPDVAKKTKSGTATPTEKPPTPTPAAEDDVANGSLNLDRPLSDSLIEALYHGNATARDKKTPATYADAETTSTDDSSILKISGGDSQTTSSTDDGSILPSTQDTSPRERLNTDSPFKGISLKDFEQHRRMIEEQNKQKKQMLYQAIEQHTQKTAAESRKIEEIRHELSKLESDLAVDVALLRKQIDNAASEKKELLTEHLCTVIAHNEDRKAQKLTELMQKVGLSPTDDCQPIDLTQQSP | no binding | 
